No constants are given. Whether binding was seen depends on the method and setting. In cells and extracts the contact can be indirect. Here binding means that the protein was enriched with, or labelled near, the bait; the list need not be complete.
Experiments:
[1] = molecular target: IQ motif containing GTPase-activating protein 1 (IQGAP1) (human (endogenous in U87 and LN18)) (UniProt P46940); experiment: affinity purification with mass spectrometry; LN18 cells treated 48 h with 10 uM Haldol or DMSO; NP40 lysates immunoprecipitated with IQGAP1-specific monoclonal antibody (IgG as control), protein A beads, 4 C; SDS-PAGE, in-gel trypsin digest, MALDI-TOF, Mascot
[2] = molecular target: IQ motif containing GTPase-activating protein 1 (IQGAP1) (human (endogenous in U87 and LN18)) (UniProt P46940); experiment: affinity purification with mass spectrometry; U87 cells treated 48 h with 10 uM Haldol or DMSO; NP40 lysates immunoprecipitated with IQGAP1-specific monoclonal antibody (IgG as control), protein A beads, 4 C; SDS-PAGE, in-gel trypsin digest, MALDI-TOF, Mascot

Chains of the proteins cited; added tags and fusions are not shown.
UniProt P46940: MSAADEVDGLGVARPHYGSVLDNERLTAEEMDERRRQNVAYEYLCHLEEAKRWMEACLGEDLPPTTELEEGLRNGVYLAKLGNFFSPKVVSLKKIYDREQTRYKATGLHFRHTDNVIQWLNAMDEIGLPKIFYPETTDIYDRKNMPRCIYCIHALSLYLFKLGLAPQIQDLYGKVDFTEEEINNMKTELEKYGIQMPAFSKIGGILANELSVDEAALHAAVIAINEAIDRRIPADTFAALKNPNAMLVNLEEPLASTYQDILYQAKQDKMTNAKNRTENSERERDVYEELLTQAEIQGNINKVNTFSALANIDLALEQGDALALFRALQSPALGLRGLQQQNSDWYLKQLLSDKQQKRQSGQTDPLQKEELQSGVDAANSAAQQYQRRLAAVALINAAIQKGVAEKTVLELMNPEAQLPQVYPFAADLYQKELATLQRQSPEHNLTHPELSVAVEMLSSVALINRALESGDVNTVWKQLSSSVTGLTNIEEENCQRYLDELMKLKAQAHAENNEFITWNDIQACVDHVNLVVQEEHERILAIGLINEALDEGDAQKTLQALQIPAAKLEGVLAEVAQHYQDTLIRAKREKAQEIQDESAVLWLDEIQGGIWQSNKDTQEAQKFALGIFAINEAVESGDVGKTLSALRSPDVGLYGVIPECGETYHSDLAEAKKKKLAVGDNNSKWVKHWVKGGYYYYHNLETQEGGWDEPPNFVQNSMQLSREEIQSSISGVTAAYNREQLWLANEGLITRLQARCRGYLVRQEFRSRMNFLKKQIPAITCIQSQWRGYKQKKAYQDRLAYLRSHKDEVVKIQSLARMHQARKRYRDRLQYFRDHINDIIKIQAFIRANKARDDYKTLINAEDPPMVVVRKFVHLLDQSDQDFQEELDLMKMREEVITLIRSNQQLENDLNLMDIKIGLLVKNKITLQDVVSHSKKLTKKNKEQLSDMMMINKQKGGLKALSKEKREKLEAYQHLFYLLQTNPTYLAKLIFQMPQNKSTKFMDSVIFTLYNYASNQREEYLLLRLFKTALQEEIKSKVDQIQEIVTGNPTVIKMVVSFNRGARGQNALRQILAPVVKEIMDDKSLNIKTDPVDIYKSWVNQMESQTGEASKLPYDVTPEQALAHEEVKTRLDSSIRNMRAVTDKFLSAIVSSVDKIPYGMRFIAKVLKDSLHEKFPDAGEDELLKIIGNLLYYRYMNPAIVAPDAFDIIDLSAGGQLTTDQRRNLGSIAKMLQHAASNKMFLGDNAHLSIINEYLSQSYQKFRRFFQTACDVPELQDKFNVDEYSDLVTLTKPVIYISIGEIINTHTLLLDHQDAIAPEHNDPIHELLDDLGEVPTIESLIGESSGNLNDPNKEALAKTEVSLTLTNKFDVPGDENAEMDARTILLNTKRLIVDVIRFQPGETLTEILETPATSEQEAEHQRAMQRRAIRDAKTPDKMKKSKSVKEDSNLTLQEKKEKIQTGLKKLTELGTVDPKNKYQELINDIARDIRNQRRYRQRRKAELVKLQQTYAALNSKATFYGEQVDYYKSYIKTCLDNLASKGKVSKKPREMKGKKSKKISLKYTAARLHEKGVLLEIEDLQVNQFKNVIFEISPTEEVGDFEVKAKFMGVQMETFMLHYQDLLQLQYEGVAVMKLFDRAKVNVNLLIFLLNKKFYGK
UniProt Q8TBZ5: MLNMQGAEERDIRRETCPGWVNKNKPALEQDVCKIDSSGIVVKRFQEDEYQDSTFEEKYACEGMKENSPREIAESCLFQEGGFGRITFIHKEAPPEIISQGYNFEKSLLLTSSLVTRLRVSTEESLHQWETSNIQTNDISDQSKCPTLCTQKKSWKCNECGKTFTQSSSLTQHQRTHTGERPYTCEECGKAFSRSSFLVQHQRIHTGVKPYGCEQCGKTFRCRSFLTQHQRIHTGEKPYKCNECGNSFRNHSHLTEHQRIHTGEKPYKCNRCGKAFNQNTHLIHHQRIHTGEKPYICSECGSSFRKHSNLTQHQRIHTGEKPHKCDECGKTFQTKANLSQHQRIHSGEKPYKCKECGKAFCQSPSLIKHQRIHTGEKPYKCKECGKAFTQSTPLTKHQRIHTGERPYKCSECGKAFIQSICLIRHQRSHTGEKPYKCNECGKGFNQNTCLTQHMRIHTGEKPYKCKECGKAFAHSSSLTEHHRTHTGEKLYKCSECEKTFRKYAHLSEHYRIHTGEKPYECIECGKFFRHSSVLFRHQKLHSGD

Row | binding [1] | binding [2] | Molecule
1 | binds | – | Zinc finger protein 502 (ZN502) (from UniProt Q8TBZ5 1-544)
2 | – | binds | Retinol dehydrogenase 11 isoform 1 precursor (RDH11) (protein, UniProt Q8TC12-1 1-318) MVELMFPLLLLLLPFLLYMAAPQIRKMLSSGVCTSTVQLPGKVVVVTGANTGIGKETAKELAQRGARVYLACRDVEKGELVAKEIQTTTGNQQVLVRKLDLSDTKSIRAFAKGFLAEEKHLHVLINNAGVMMCPYSKTADGFEMHIGVNHLGHFLLTHLLLEKLKESAPSRIVNVSSLAHHLGRIHFHNLQGEKFYNAGLAYCHSKLANILFTQELARRLKGSGVTTYSVHPGTVQSELVRHSSFMRWMWWLFSFFIKTPQQGAQTSLHCALTEGLEILSGNHFSDCHVAWVSAQARNETIARRLWDVSCDLLGLPID

— publication PMC10203884
